[ ]: non-standard residue; d: D form. The star is where a group is joined. Nle = CCCC[C@H](N)C(=O)O; Cbz = O=C(OCc1ccccc1)*; Boc = CC(C)(C)OC(=O)*
Assay: general procedure: solution-phase peptide synthesis; DCC/HOBT; azide fragment coupling (t-butyl nitrite); ONP active ester
Conditions: acetate salt

| Substance | step yield (late stage modification step) | step yield (coupling step) |
| --- | --- | --- |
| BOC-Arg(H^+)-Lys-(CBZ)-Gln-Nle-NHNH2 | 92% |  |
| BOC-Arg(H^+)-Lys-(CBZ)-Gln-Nle-OMe |  | 56% |
| Boc-AVK(Cbz)K(Cbz)-NH2 | 98% |  |
| Boc-AVK(Cbz)K(Cbz)-OMe |  | 84% |
| Boc-K(Cbz)Q[Nle]AVK(Cbz)-NH2 |  | 85% |

— patent publication US4737487A (Beecham Group p.l.c., priority 1984, dated 1988)
